These results are taken from US20060194856A1, “Use of atii antagonist for the treatment or prevention of metabolic syndrome” (ASTRAZENECA AB, priority 2003, published 2006).

This data set in a line: Clinical study: drug usage and discontinuation. It counts as in vivo, patients. As to conditions: for patients who needed add-on treatment: at the end of study, add-on felodipine (mean 3 mg) to candesartan cilexetil, atenolol (mean 68 mg) to hydrochlorothiazide; for discontinuation rate: one-year study, 197 randomised to candesartan cilexetil, 196 to hydrochlorothiazide.

Turning to `NS(=O)(=O)c1cc2c(cc1Cl)NCNS2(=O)=O` [HCTZ, hydrochlorothiazide], the “patients who needed add-on treatment” value came out at 84% and the discontinuation rate amounted to 7.1%.
For `CCOc1nc2cccc(C(=O)OC(C)OC(=O)OC3CCCCC3)c2n1Cc1ccc(-c2ccccc2-c2nn[nH]n2)cc1` (stereo not shown) [Candesartan cilexetil, candesartan cilexetil], in that order: 71% and 8.2%.
